# Experimental data: PubChem BioAssay AID1224830 (NIAID, 2016)
# Purpose: 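Regulators of TLR4 signalling towards TNF-alpha in macrophage-like cells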 (primary screen)
# System: human THP-1 monocytic leukaemia cells, TNF dual-luciferase reporter clone, PMA-differentiated to macrophage-like cells
# Reagents: siRNA pool against human genes, 50 nM
# Duration: LPS for 4 h, given about 3 days after siRNA transfection
# Challenge: bacterial LPS (TLR4 ligand), 10 ng/ml
# Measurement: 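TNF firefly reporter luminescence divided by renilla, normalised to the plate median, then turned into a robust z-score for each replicate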
# Reading the numbers: TNF reporter robust z-score: higher = stronger TNF reporter response to LPS
# Call rule: 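Each well counts as active if its z-score is over 2.8 or under -1.5; controls are left without a call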
# In all, the deposit lists about 18,000 reagents; below is a random part of them. About 2,900 of them (16%) were called active. 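Calls are made per well; low scores hint the gene aids the LPS response, high scores that it dampens it.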 Repeated entries: four replicate wells of each siRNA pool. Reagent sequences are not shown.
Target gene,TNF reporter robust z-score,outcome
PTRH2,-1.01,inactive
PTRH2,0.26,inactive
PTRH2,0.08,inactive
PTRH2,0.1,inactive
OSGIN1,0.42,inactive
OSGIN1,0.23,inactive
OSGIN1,-0.89,inactive
PDXK,-0.77,inactive
PDXK,-0.05,inactive
PDXK,0.49,inactive
PDXK,-0.16,inactive
MTHFR,-0.32,inactive
MTHFR,0.11,inactive
MTHFR,-0.48,inactive
MTHFR,0.33,inactive
SLC7A4,1.57,inactive
SLC7A4,1.76,inactive
SLC7A4,2.28,inactive
SLC7A4,1.71,inactive
PGA4,-1.14,inactive
PGA4,-0.13,inactive
PGA4,-0.55,inactive
PGA4,0.03,inactive
CYP4F22,-0.21,inactive
CYP4F22,-0.39,inactive
CYP4F22,0.87,inactive
CYP4F22,0.61,inactive
CCDC73,0.4,inactive
CCDC73,0.64,inactive
CCDC73,1.94,inactive
CCDC73,1.15,inactive
CACNG7,-0.03,inactive
CACNG7,0.43,inactive
CACNG7,2.05,inactive
CACNG7,0.9,inactive
HMOX1,-0.35,inactive
HMOX1,0.58,inactive
HMOX1,0.03,inactive
HMOX1,1.69,inactive
PSMB2,-1.99,active
PSMB2,-1.44,inactive
PSMB2,-1.96,active
PSMB2,-1.6,active
OR1D2,1.13,inactive
OR1D2,0.17,inactive
OR1D2,-0.05,inactive
OR1D2,0.2,inactive
MATN4,0.12,inactive
MATN4,-0.19,inactive
MATN4,-0.04,inactive
MATN4,-0.07,inactive
ZFPM1,-1.07,inactive
ZFPM1,-0.5,inactive
ZFPM1,-0.88,inactive
ZFPM1,-0.39,inactive
LPCAT3,1.24,inactive
LPCAT3,1.23,inactive
LPCAT3,0.89,inactive
LPCAT3,0.35,inactive
RUSC1,-0.99,inactive
RUSC1,0.11,inactive
RUSC1,-0.04,inactive
RUSC1,-0.5,inactive
TIMELESS,0.28,inactive
TIMELESS,-0.17,inactive
TIMELESS,-0.19,inactive
TIMELESS,-0.09,inactive
SELENON,-0.27,inactive
SELENON,-0.75,inactive
SELENON,-0.24,inactive
SELENON,0.09,inactive
H2BC18,4.16,active
H2BC18,2.56,inactive
H2BC18,0.92,inactive
H2BC18,3.56,active

A portion of the results above, for reference:
Target gene,TNF reporter robust z-score,outcome
HMOX1,0.03,inactive
HMOX1,1.69,inactive
PSMB2,-1.99,active
PSMB2,-1.44,inactive
PSMB2,-1.96,active
PSMB2,-1.6,active
